{"source": "PubChem BioAssay AID504834", "about": "(National Center for Advancing Translational Sciences (NCATS), 2011)", "note": "Out of some 320,000 compounds screened, about 22,000 (6.9%) were called active. Inconclusive results, whose numbers are uncertain, are shown with a selection of clear calls. Calls follow the shape of the dose curve; as a rule, active = well fitted inhibition curve with a large enough effect; inconclusive = small, poorly fitted or top-dose-only effect, or another doubt; inactive = no such curve, though single readings can be large or run the other way. Where the call is inconclusive, the potency comes from a doubtful curve fit. % is scaled to controls: 0 for no effect and ±100 for the full control effect; potency is read from the fitted curve at half-maximal effect.", "data": [{"assay": "Primary qHTS for delayed death inhibitors of the malarial parasite plastid, 96 hour incubation", "settings": "P. falciparum luciferase reporter growth; series mostly up to 28.7 µM; activity change, negative = inhibition: at the top concentration", "method_in_brief": "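P. falciparum expressing integrated firefly luciferase grown in erythrocytes (2% hematocrit, 0.05% parasitemia final) with compounds for 96 hours at 37 C, 5% CO2. Growth inhibition read as loss of luminescence after adding luciferase detection reagent.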", "values": [{"smiles": "COc1ccc(C)cc1S(=O)(=O)Nc1ccc(F)c(Cl)c1", "Potency": "inconclusive: 13.1 µM [inhibitor, single point]"}, {"smiles": "NS(=O)(=O)c1ccc(NC(=S)NCC2CCCO2)cc1", "note": "(stereo not given)", "Potency": "inconclusive: 18.5 µM [inhibitor, single point]"}, {"smiles": "Cc1cc(C)cc(-c2nnc(SCC(=O)Nc3cc(C)on3)o2)c1", "Potency": "inconclusive: 11.7 µM [inhibitor, single point]"}, {"smiles": "CCC1Sc2ccc(S(=O)(=O)Nc3ccc(OC)cc3)cc2NC1=O", "note": "(stereo not given)", "Potency": "inconclusive: 4.65 µM [inhibitor, partial curve, poor fit]"}, {"smiles": "CC(=O)N(Cc1ccc2c(c1)OCO2)C1CC(=O)N(CCc2ccccc2)C1=O", "note": "(stereo not given)", "Potency": "inconclusive: 3.29 µM [inhibitor, partial curve, poor fit]"}, {"smiles": "COC(=O)c1c(NC(=O)/C=C/c2ccc3c(c2)OCO3)sc(C)c1C", "activity change, negative = inhibition": "inactive: 0.459%"}, {"smiles": "CCn1c(CNc2ccc(F)cc2)nnc1SCCN1CCCCC1", "Potency": "inconclusive: 13.1 µM [inhibitor, partial curve, poor fit]"}, {"smiles": "CCC(C)n1c(-c2ccco2)nc2nc3ccccc3nc21", "note": "(stereo not given)", "Potency": "active: 10.4 µM"}, {"smiles": "CCOc1ccc(CN(C(=O)c2oc3ccccc3c2C)C2CCS(=O)(=O)C2)cc1", "note": "(stereo not given)", "Potency": "inconclusive: 9.28 µM [inhibitor, single point]"}, {"smiles": "CCC(CC)c1nnc(NC(=O)CCS(=O)(=O)Cc2ccccc2)s1", "Potency": "inconclusive: 3.29 µM [inhibitor, single point]"}, {"smiles": "O=C1c2cccnc2C(Nc2ccc(Br)cc2Br)N1Cc1cccs1", "note": "(stereo not given)", "Potency": "active: 6.57 µM"}, {"smiles": "Cc1ccc(CN2C(=O)CCC2C(=O)NCCN(CC(C)C)CC(C)C)cc1", "note": "(stereo not given)", "Potency": "inconclusive: 11.7 µM [inhibitor, partial curve, poor fit]"}, {"smiles": "CCc1sc(C(=O)NCCc2ccc(S(N)(=O)=O)cc2)cc1Br", "Potency": "inconclusive: 18.5 µM [inhibitor, single point]"}, {"smiles": "CSC1=NC(C)(C)C=C(/C=C/c2c(Cl)cccc2Cl)N1", "Potency": "inconclusive: 10.4 µM [inhibitor, partial curve, poor fit]"}, {"smiles": "Cc1cc(OCCN2CCOCC2)ccc1Cl", "Potency": "inconclusive: 10.4 µM [inhibitor, single point]"}, {"smiles": "COc1ccc(S(=O)(=O)N2CCN(CC(=O)Nc3ccc(F)c(F)c3)CC2)cc1", "Potency": "inconclusive: 9.28 µM [inhibitor, single point]"}, {"smiles": "Cc1ccc2c(c1)CC1(CN2C)C(=O)NC(=O)N(C(C)C)C1=O", "note": "(stereo not given)", "Potency": "inconclusive: 18.5 µM [inhibitor, single point]"}, {"smiles": "CCOC(=O)c1ccccc1C(=O)N1CCOCCOCCOCC1", "Potency": "inconclusive: 13.1 µM [inhibitor, single point]"}, {"smiles": "Cc1onc(-c2ccccc2)c1C(=O)Nc1ccc(S(=O)(=O)N2CCCC2)cc1", "activity change, negative = inhibition": "inactive: -23.6%"}, {"smiles": "N#CC1=C(SCc2ccccc2)NC(=O)CC1c1ccco1", "note": "(stereo not given)", "Potency": "inconclusive: 18.5 µM [inhibitor, single point]"}, {"smiles": "CCn1nnc2cc(C(=O)O)ccc21", "activity change, negative = inhibition": "inactive: 31.8%"}, {"smiles": "CC1=NN(/C(=N\\c2nnc(C)s2)Nc2ccc(C)cc2)[C@H](c2ccc(C)cc2)S1", "Potency": "inconclusive: 13.1 µM [inhibitor, partial curve, poor fit]"}, {"smiles": "O=c1[nH]cnc2cc(-c3ccc(Br)cc3)sc12", "activity change, negative = inhibition": "inactive: 239%"}, {"smiles": "CS(=O)(=O)Nc1ccc(-c2n[nH]c(=S)n2-c2ccccc2)cc1", "Potency": "inconclusive: 1.65 µM [inhibitor, partial curve, poor fit]"}, {"smiles": "CN=c1scc(C)n1/N=C/c1ccc(O)cc1O", "activity change, negative = inhibition": "inactive: -24.7%"}, {"smiles": "Cc1cc(C(=O)CSc2ncn[nH]2)c(C)n1-c1cccc(S(=O)(=O)N2CCOCC2)c1", "Potency": "inconclusive: 13.1 µM [inhibitor, single point]"}, {"smiles": "COC(=O)c1cn(Cc2cccnc2)c(=O)c2ccccc12", "Potency": "inconclusive: 1.17 µM [inhibitor, partial curve, poor fit]"}, {"smiles": "CCCc1ccc(C#N)c(SC2CC(=O)N(c3ccc(OC)cc3)C2=O)n1", "note": "(stereo not given)", "Potency": "inconclusive: 18.5 µM [inhibitor, single point]"}, {"smiles": "Cc1nc(NC(=O)/C=C/c2ccccc2)sc1C(=O)Nc1ccc(Cl)cc1", "activity change, negative = inhibition": "inactive: 43%"}, {"smiles": "Cc1[nH]c2ccccc2c1/C=N/NC(=O)CNC(=O)c1ccc2c(c1)OCCO2", "activity change, negative = inhibition": "inactive: 16.3%"}, {"smiles": "CCOc1cc(CNCCc2ccc(S(N)(=O)=O)cc2)ccc1OCC(=O)NC1CCCCC1", "Potency": "inconclusive: 18.5 µM [inhibitor, single point]"}, {"smiles": "CCOC(=O)Nc1c(C(=O)OC)[nH]c2cc(OC)ccc12", "Potency": "inconclusive: 18.5 µM [inhibitor, single point]"}, {"smiles": "CCOC(=O)C(Cc1ccccc1)NC(=O)CCCC(=O)c1ccccc1", "note": "(stereo not given)", "Potency": "inconclusive: 11.7 µM [inhibitor, single point]"}, {"smiles": "Cc1ccc(CN(C(=O)c2cc(=O)c3cc(C)cc(C)c3o2)C2CCS(=O)(=O)C2)cc1", "note": "(stereo not given)", "Potency": "active: 9.28 µM"}, {"smiles": "CC(C)C[C@@H](NC(=O)[C@@H](Cc1ccccc1)NC(=O)c1cnccn1)B(O)O", "Potency": "active: 0.0338 µM"}, {"smiles": "COC(=O)Cc1csc(N)n1", "Potency": "inconclusive: 18.5 µM [inhibitor, single point]"}, {"smiles": "CN(C)c1ccc(/C=C/c2ccncc2)cc1", "activity change, negative = inhibition": "inactive: -6.65%"}, {"smiles": "COC(=O)c1[nH]c2cc(C)ccc2c1NC(=O)CN1CCN(c2ccccc2OC)CC1", "Potency": "inconclusive: 5.22 µM [inhibitor, partial curve]"}, {"smiles": "CCc1cccc(CC)c1N(COC)C(=O)Cn1cnc2ccccc21", "activity change, negative = inhibition": "inactive: -11.7%"}, {"smiles": "COC/C=C/C1=CC2=CC(=O)C(C)(OC(=O)c3cnc4ccccc4n3)C(=O)C2=CN1CCCOC(C)C", "note": "(stereo not given)", "Potency": "inconclusive: 18.5 µM [inhibitor, single point]"}, {"smiles": "N#Cc1ccccc1OCCCN1CCC(Cc2ccccc2)CC1", "Potency": "inconclusive: 1.17 µM [inhibitor, partial curve, poor fit]"}, {"smiles": "O=c1oc2ccccc2c2c1ncn2C1CCCCC1", "Potency": "inconclusive: 7.38 µM [inhibitor, partial curve, poor fit]"}, {"smiles": "N#C/C(=C\\C=C\\c1ccccc1)C(=O)N1CCCC1", "Potency": "inconclusive: 6.57 µM [inhibitor, partial curve]"}, {"smiles": "C=CCN(C(=O)c1oc2c(Cl)cc(C)cc2c1C)C1CCS(=O)(=O)C1", "note": "(stereo not given)", "activity change, negative = inhibition": "inactive: -11.7%"}, {"smiles": "CCOc1ccc(NS(=O)(=O)c2ccc(Cl)c(C(=O)N(C)Cc3cccnc3)c2)cc1", "activity change, negative = inhibition": "inactive: -18.3%"}, {"smiles": "Cc1ccc(-c2cn3cc(C)ccc3n2)cc1", "Potency": "inconclusive: 3.29 µM [inhibitor, partial curve, poor fit]"}, {"smiles": "O=C(O)CC(NC(=O)CCc1ccccc1)c1ccc(Cl)cc1", "note": "(stereo not given)", "Potency": "inconclusive: 11.7 µM [inhibitor, single point]"}, {"smiles": "Cc1cccc(N2C(=O)N(c3ccccc3C)C3CS(=O)(=O)CC32)c1", "note": "(stereo not given)", "Potency": "inconclusive: 18.5 µM [inhibitor, single point]"}, {"smiles": "CCn1cc(C(=O)NCCc2ccc(OC)c(OC)c2)c(=O)c2cc(S(=O)(=O)N3CCOCC3)ccc21", "Potency": "inconclusive: 9.28 µM [inhibitor, single point]"}, {"smiles": "CC(C)CCCCCCNC(=S)Nc1ccc(S(=O)(=O)N2CCOCC2)cc1", "Potency": "inconclusive: 18.5 µM [inhibitor, single point]"}, {"smiles": "Cc1ccc(CNC(=S)Nc2ccc(NS(=O)(=O)c3ccc(C)cc3)cc2)cc1", "Potency": "active: 10.4 µM"}, {"smiles": "COc1ccc2c(CCNC(=O)Nc3ccccc3)c[nH]c2c1", "Potency": "inconclusive: 18.5 µM [inhibitor, single point]"}, {"smiles": "COc1ccc(Cn2c(-c3ccc(Br)cc3)c[n+]3ccccc23)cc1", "Potency": "active: 0.131 µM"}, {"smiles": "O=C(NC(=S)NCCc1ccccc1)c1ccccc1", "activity change, negative = inhibition": "inactive: 18.3%"}, {"smiles": "CCOc1cccc(/C=N/N2C(C)CCCC2C)c1O", "note": "(stereo not given)", "activity change, negative = inhibition": "inactive: -25.4%"}, {"smiles": "COc1ccccc1NC(=O)CN1C(=O)CCS(=O)(=O)c2ccccc21", "Potency": "inconclusive: 1.17 µM [inhibitor, partial curve, poor fit]"}, {"smiles": "CC(=O)/C=C1\\N(C)c2ccc(C)cc2C1(C)C", "activity change, negative = inhibition": "inactive: -13.3%"}, {"smiles": "CC(OC(=O)CCOc1ccccc1)C(=O)Nc1ccc(Cl)cn1", "note": "(stereo not given)", "activity change, negative = inhibition": "inactive: -3.6%"}, {"smiles": "O=c1c2ccccc2nc(-c2ccccc2)n1-c1nccs1", "activity change, negative = inhibition": "inactive: 5.68%"}, {"smiles": "CCC(C)(C)C1CCC(=NNc2nc3ccccc3[nH]2)CC1", "note": "(stereo not given)", "Potency": "active: 10.4 µM"}, {"smiles": "CCCN(CC(=O)Nc1ccccc1C)C(=O)CC(NC(=O)c1ccccc1)c1ccccc1", "note": "(stereo not given)", "Potency": "inconclusive: 13.1 µM [inhibitor, single point]"}, {"smiles": "COC(=O)c1ccc(CN(c2ccccn2)S(=O)(=O)c2ccccc2)cc1", "Potency": "inconclusive: 0.928 µM [inhibitor, full curve]"}, {"smiles": "CCn1cc(C(=O)N2CCc3ccccc32)c(=O)c2cc(S(=O)(=O)N3CCCCCC3)ccc21", "Potency": "inconclusive: 9.28 µM [inhibitor, partial curve, poor fit]"}, {"smiles": "COc1ccc(C(=O)N2CCCN(C)CC2)cc1S(=O)(=O)N1CCCc2ccccc21", "Potency": "inconclusive: 2.62 µM [inhibitor, full curve]"}, {"smiles": "COc1cccc(/C=C/C(=O)c2ccc3c(c2)OCO3)c1OC", "activity change, negative = inhibition": "inactive: -1.93%"}, {"smiles": "COc1cccc(N2CCN(C(=O)CNC(=O)c3sc4ccccc4c3Cl)CC2)c1", "Potency": "inconclusive: 18.5 µM [inhibitor, single point]"}, {"smiles": "O=C(NCc1ccccc1)Nc1cc(Cl)ccc1Cl", "Potency": "inconclusive: 8.28 µM [inhibitor, single point]"}, {"smiles": "CCc1ccc(OCC(=O)Nc2ccc3[nH]ncc3c2)cc1", "Potency": "inconclusive: 10.4 µM [inhibitor, partial curve, poor fit]"}, {"smiles": "COc1ccc(C(CNC(=O)c2ccc(S(=O)(=O)N3CCCC3)cc2)N2CCOCC2)cc1", "note": "(stereo not given)", "Potency": "inconclusive: 3.7 µM [inhibitor, full curve, poor fit]"}, {"smiles": "COc1ccccc1CNCC(=O)NCc1ccc(C)cc1", "Potency": "inconclusive: 14.7 µM [inhibitor, single point]"}]}]}
